These results are taken from PMC8387021.

Chains of the proteins cited; added tags and fusions are not shown. Lines headed by an entry give the natural chain unless they say otherwise; changes in a name come on top. Residues count along the entry.
UniProt Q03164, residues 869-1124: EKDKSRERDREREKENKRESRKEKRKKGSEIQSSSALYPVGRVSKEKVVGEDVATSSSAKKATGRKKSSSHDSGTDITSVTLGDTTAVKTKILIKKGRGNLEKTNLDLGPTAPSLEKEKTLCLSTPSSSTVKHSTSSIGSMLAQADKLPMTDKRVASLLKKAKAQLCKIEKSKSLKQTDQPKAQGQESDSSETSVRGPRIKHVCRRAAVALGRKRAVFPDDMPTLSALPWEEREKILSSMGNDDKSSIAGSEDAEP
UniProt O95251: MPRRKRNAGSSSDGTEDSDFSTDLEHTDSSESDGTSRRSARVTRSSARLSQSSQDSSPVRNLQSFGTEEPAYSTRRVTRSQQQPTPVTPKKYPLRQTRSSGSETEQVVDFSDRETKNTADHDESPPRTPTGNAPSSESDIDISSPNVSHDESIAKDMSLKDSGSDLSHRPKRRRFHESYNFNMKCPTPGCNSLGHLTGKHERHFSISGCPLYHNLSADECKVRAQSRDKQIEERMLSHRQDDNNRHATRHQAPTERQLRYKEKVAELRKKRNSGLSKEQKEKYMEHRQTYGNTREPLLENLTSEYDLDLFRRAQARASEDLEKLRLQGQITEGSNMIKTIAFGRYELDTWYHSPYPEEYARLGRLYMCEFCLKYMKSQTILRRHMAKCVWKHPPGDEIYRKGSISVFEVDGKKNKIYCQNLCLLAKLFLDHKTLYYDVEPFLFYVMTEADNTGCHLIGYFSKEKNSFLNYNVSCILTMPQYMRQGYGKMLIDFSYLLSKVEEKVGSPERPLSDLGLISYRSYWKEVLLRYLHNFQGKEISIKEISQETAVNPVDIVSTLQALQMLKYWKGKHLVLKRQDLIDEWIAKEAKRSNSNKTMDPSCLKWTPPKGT
UniProt Q8WYH8: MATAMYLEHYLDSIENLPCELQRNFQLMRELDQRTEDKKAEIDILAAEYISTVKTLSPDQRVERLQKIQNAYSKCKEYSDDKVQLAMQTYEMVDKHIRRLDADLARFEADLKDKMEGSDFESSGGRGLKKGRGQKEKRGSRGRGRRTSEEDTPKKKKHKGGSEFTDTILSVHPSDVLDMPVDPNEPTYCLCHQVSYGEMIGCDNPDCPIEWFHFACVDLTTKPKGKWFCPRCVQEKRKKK

Where two headings read alike, the source gives them in different places. No constants are given. Whether binding was seen depends on the method and setting. Binding seen in cells or lysates may run through a third protein. For part of these data: Binding calls can cover weak binding; strength is not graded here. For part of these data: Sequences can lack the tags named with a protein.

For experiment [1], the target named is fMLL ΔFP ΔTHD2 (UniProt Q03164). Put plainly: co-IP; fanChIP: MNase-treated chromatin fraction of HEK293T cells transiently expressing FLAG-tagged MLL or GAL4 constructs (with xAF4/xAF5Q31 where told); anti-FLAG beads, western blot. In general terms: A western blot detects proteins with antibodies after separation by electrophoresis.
For experiment [2], the target named is fMLL 869–1124 (UniProt Q03164). Put plainly: co-IP; chromatin fraction of HEK293T cells expressing fMLL 869-1124 with all HBO1 complex components co-expressed (ING5 replaced by its mutants where told).
Experiment [3] deals with fMLL ΔFP ΔTHD2 (UniProt Q03164). Put plainly: co-IP; fanChIP: MNase-treated chromatin fraction of HEK293T cells transiently expressing FLAG-tagged MLL or GAL4 constructs (with xAF4/xAF5Q31 where told); anti-FLAG beads, western blot. This is another data set of the same source.

Regarding HBO1 (from UniProt O95251 1-611), the binding result in experiment [1] is recorded as “binds weakly”.

In the case of “ING5 with the ING domain deleted (from UniProt Q8WYH8)”, the binding entry in experiment [2] is reported as “no binding”.

B1: Xpress-tagged AF4 (protein, UniProt P51825 1-1210)
chain: MAAQSSLYNDDRNLLRIREKERRNQEAHQEKEAFPEKIPLFGEPYKTAKGDELSSRIQNMLGNYEEVKEFLSTKSHTHRLDASENRLGKPKYPLIPDKGSSIPSSSFHTSVHHQSIHTPASGPLSVGNISHNPKMAQPRTEPMPSLHAKSCGPPDSQHLTQDRLGQEGFGSSHHKKGDRRADGDHCASVTDSAPERELSPLISLPSPVPPLSPIHSNQQTLPRTQGSSKVHGSSNNSKGYCPAKSPKDLAVKVHDKETPQDSLVAPAQPPSQTFPPPSLPSKSVAMQQKPTAYVRPMDGQDQAPSESPELKPLPEDYRQQTFEKTDLKVPAKAKLTKLKMPSQSVEQTYSNEVHCVEEILKEMTHSWPPPLTAIHTPSTAEPSKFPFPTKDSQHVSSVTQNQKQYDTSSKTHSNSQQGTSSMLEDDLQLSDSEDSDSEQTPEKPPSSSAPPSAPQSLPEPVASAHSSSAESESTSDSDSSSDSESESSSSDSEENEPLETPAPEPEPPTTNKWQLDNWLTKVSQPAAPPEGPRSTEPPRRHPESKGSSDSATSQEHSESKDPPPKSSSKAPRAPPEAPHPGKRSCQKSPAQQEPPQRQTVGTKQPKKPVKASARAGSRTSLQGEREPGLLPYGSRDQTSKDKPKVKTKGRPRAAASNEPKPAVPPSSEKKKHKSSLPAPSKALSGPEPAKDNVEDRTPEHFALVPLTESQGPPHSGSGSRTSGCRQAVVVQEDSRKDRLPLPLRDTKLLSPLRDTPPPQSLMVKITLDLLSRIPQPPGKGSRQRKAEDKQPPAGKKHSSEKRSSDSSSKLAKKRKGEAERDCDNKKIRLEKEIKSQSSSSSSSHKESSKTKPSRPSSQSSKKEMLPPPPVSSSSQKPAKPALKRSRREADTCGQDPPKSASSTKSNHKDSSIPKQRRVEGKGSRSSSEHKGSSGDTANPFPVPSLPNGNSKPGKPQVKFDKQQADLHMREAKKMKQKAELMTDRVGKAFKYLEAVLSFIECGIATESESQSSKSAYSVYSETVDLIKFIMSLKSFSDATAPTQEKIFAVLCMRCQSILNMAMFRCKKDIAIKYSRTLNKHFESSSKVAQAPSPCIASTGTPSPLSPMPSPASSVGSQSSAGSVGSSGVAATISTPVTIQNMTSSYVTITSHVLTAFDLWEQAEALTRKNKEFFARLSTNVCTLALNSSLVDLVHYTRQGFQQLQELTKTP
For B1, the binding entry in experiment [3] was “binds”.
